Some results were stated once for a whole list of compounds, not compound by compound.
What was measured:
Tie-2 kinase enzyme = Tie-2 kinase enzyme (Homo sapiens, UniProt Q02763); assay: Tie-2 Homogenous Time Resolved Fluorescent (HTRF) kinase assay; assay type: biochemical; conditions: read-out: IC50's for the inhibition of Tie-2 as measured by the HTRF assay
AuroraA-TPX2 KD GST = biological target: T1, AuroraA-TPX2 KD GST (Homo sapiens, UniProt O14965); assay: AuroraA-TPX2 Homogeneous Time Resolved Fluorescent (HTRF) kinase assay; assay type: biochemical; conditions: read-out: activity in the Aurora kinase A HTRF assay
T1 construct: AuroraA-TPX2 KD GST; GST
T1 sequence (O14965 133-383 limits assumed): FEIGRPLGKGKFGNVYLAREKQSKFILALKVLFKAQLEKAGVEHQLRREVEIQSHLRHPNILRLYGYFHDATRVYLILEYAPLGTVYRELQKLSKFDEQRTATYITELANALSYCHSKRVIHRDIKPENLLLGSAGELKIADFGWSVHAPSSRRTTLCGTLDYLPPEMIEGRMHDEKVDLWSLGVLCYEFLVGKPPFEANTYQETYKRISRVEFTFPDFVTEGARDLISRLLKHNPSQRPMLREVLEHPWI
T1 sequence (Q9ULW0 1-43 partner limits assumed): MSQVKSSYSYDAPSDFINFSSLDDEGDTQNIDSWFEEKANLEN

Chains of the proteins cited; added tags and fusions are not shown. Residues count along the entry.
UniProt Q02763, 23-1124: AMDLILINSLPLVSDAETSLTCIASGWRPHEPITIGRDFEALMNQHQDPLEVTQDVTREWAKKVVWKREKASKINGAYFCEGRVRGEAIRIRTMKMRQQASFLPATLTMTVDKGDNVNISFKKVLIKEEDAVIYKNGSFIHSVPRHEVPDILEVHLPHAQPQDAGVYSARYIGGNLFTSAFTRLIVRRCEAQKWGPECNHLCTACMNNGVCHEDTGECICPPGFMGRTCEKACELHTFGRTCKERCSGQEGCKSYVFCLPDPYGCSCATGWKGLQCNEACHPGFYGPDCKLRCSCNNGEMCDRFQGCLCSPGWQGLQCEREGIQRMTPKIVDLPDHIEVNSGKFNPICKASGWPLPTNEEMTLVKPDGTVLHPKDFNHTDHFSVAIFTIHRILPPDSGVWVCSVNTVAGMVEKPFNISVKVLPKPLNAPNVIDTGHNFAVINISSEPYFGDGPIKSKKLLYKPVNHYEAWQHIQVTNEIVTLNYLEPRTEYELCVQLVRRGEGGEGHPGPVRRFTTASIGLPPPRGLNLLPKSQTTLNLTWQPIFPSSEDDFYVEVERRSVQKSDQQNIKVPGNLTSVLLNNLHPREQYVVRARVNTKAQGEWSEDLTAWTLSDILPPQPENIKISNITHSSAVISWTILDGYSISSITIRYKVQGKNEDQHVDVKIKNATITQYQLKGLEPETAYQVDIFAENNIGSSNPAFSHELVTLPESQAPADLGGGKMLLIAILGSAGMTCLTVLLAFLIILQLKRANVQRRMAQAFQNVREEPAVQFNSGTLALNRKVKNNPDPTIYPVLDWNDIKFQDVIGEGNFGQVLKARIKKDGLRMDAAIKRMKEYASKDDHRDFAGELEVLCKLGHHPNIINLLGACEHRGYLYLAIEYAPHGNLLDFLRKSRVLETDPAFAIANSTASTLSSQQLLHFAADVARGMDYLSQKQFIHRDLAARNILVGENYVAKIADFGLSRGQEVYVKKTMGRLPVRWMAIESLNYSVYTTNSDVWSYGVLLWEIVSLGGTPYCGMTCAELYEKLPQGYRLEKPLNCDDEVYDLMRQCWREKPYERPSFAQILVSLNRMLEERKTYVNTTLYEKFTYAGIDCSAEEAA
UniProt Q96GD4, whole entry: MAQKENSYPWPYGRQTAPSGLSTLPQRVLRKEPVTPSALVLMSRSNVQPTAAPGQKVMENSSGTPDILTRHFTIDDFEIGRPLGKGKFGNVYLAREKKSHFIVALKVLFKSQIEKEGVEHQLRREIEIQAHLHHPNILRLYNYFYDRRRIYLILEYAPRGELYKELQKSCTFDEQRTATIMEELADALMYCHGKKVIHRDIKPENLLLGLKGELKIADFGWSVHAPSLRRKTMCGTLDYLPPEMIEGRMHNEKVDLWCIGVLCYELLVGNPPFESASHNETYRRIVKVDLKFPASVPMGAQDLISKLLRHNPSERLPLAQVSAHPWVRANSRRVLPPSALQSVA

AuroraB FL His = biological target: T2, AuroraB FL His (Homo sapiens, UniProt Q96GD4); assay: AuroraB Homogeneous Time Resolved Fluorescent (HTRF) kinase assay; assay type: biochemical; conditions: read-out: activity in the Aurora kinase B HTRF assay
T2 construct: AuroraB FL His; His

c-Met = c-Met (UniProt P08581); assay: c-MET cell-based autophosphorylation assay (PC3 cells, HGF stimulated); conditions: cell line (human PC3 or mouse CT26) not stated for the results

SMILES: Cc1cc(NC(=O)c2cccc(C(F)(F)F)c2)ccc1Oc1ncccc1-c1ccnc(NCCN(C)C)n1 [Example 1163, N-(4-((3-(2-((2-(dimeth-ylamino)ethyl)amino)-4-pyrimidinyl)-2-pyridinyl)oxy)-3-methylphenyl)-3-(trifluoromethyl) benzamide]
- IC50 (Tie-2 kinase enzyme): < 5 µM
- IC50 (AuroraA-TPX2 KD GST): < 10 µM
- IC50 (AuroraB FL His): < 10 µM

SMILES: Cc1cc(NC(=O)c2cccc(C(F)(F)F)c2)ccc1Oc1ncccc1-c1ccnc(NCCCCN(C)C)n1 [Example 1164, N-(4-((3-(2-((4-(dimethyl-amino)butyl)ami-no)-4-pyrimi-dinyl)-2-pyri-dinyl)oxy)-3-methylphenyl)-3-(trifluoromethyl) benzamide]
- IC50 (Tie-2 kinase enzyme): < 5 µM
- IC50 (AuroraA-TPX2 KD GST): < 10 µM
- IC50 (AuroraB FL His): < 10 µM

SMILES: Cc1cc(NC(=O)c2cccc(C(F)(F)F)c2)ccc1Oc1ncccc1-c1ccnc(NCCCN(C)C)n1 [Example 1165, N-(4-((3-(2-((3-(dimethylamino)propyl)amino)-4-pyrimidinyl)-2-pyridinyl)oxy)-3-methylphenyl)-3-(trifluoromethyl) benzamide]
- IC50 (Tie-2 kinase enzyme): < 5 µM
- IC50 (AuroraA-TPX2 KD GST): < 10 µM
- IC50 (AuroraB FL His): < 10 µM

SMILES: Cc1cc(NC(=O)c2cccc(C(F)(F)F)c2)ccc1Oc1ncccc1-c1ccnc(NCCCN2CCCC2)n1 [Example 1167, N-(3-methyl-4-(3-(2-(3-(pyrrolidin-1-yl)propylamino)pyrimidin-4-yl)pyridin-2-yloxy)phenyl)-3-(trifluoromethyl) benzamide]
- IC50 (Tie-2 kinase enzyme): < 5 µM
- IC50 (AuroraA-TPX2 KD GST): < 10 µM
- IC50 (AuroraB FL His): < 10 µM

SMILES: Cc1cc(NC(=O)c2cccc(C(F)(F)F)c2)ccc1Oc1ncccc1-c1ccnc(NCCCN2CCCCC2)n1 [Example 1168, N-(3-methyl-4-(3-(2-(3-(piperidin-1-yl)propylamino)pyrimidin-4-yl)pyridin-2-yloxy)phenyl)-3-(trifluoromethyl) benzamide]
- IC50 (Tie-2 kinase enzyme): < 5 µM
- IC50 (AuroraA-TPX2 KD GST): < 10 µM
- IC50 (AuroraB FL His): < 10 µM

SMILES: CNc1nccc(-c2cccnc2Oc2ccc(NC(=O)c3ccccc3N)cc2)n1 [Example 1173, 2-amino-N-(4-((3-(2-(methylamino)-4-pyrimidinyl)-2-pyridinyl)oxy)phenyl)benz-amide]
- IC50 (Tie-2 kinase enzyme): < 5 µM
- IC50 (AuroraA-TPX2 KD GST): < 10 µM
- IC50 (AuroraB FL His): < 10 µM

SMILES: CNc1nccc(-c2cc(N3CCN(C)CC3)cnc2Oc2ccc(NC(=O)c3cccc(C(F)(F)F)c3)cc2C)n1 [Example 1179, N-(3-methyl-4-((3-(2-(methylamino)-4-pyrimidinyl)-5-(4-methyl-1-piperazinyl)-2-pyridinyl)oxy)phenyl)-3-(trifluoromethyl)benzamide]
- IC50 (Tie-2 kinase enzyme): < 5 µM
- IC50 (AuroraA-TPX2 KD GST): < 10 µM
- IC50 (AuroraB FL His): < 10 µM

SMILES: CNc1nccc(-c2cccnc2Oc2ccc(NC(=O)c3cccnc3NCc3ccccc3)cc2)n1 [Example 1181, 2-(benzylamino)-N-(4-(3-(2-(methylamino)pyrimidin-4-yl)pyridin-2-yloxy)phenyl)nicotinamide]
- IC50 (Tie-2 kinase enzyme): < 5 µM
- IC50 (AuroraA-TPX2 KD GST): < 10 µM
- IC50 (AuroraB FL His): < 10 µM

SMILES: CNc1nccc(-c2cccnc2Oc2ccc(NC(=O)c3cccnc3NC3CC3)cc2)n1 [Example 1182, 2-(cyclopropylamino)-N-(4-(3-(2-(methylamino)pyrimidin-4-yl)pyridin-2-yloxy)phenyl)nicotinamide]
- IC50 (Tie-2 kinase enzyme): < 5 µM
- IC50 (AuroraA-TPX2 KD GST): < 10 µM
- IC50 (AuroraB FL His): < 10 µM

SMILES: CNc1nccc(-c2cccnc2Oc2ccc(NC(=O)c3cccnc3NCC3CC3)cc2)n1 [Example 1183, 2-(cyclopropylmethylamino)-N-(4-(3-(2-(methylamino)pyrimidin-4-yl)pyridin-2-yloxy)phenyl)nicotinamide]
- IC50 (Tie-2 kinase enzyme): < 5 µM
- IC50 (AuroraA-TPX2 KD GST): < 10 µM
- IC50 (AuroraB FL His): < 10 µM

SMILES: CNc1nccc(-c2cccnc2Oc2ccc(NC(=O)c3ccc(NCCN4CCOCC4)c(C(F)(F)F)c3)cc2C)n1 [Example 1189, N-(3-methyl-4-((3-(2-(methylamino)-4-pyrimidinyl)-2-pyridinyl)oxy)phenyl)-4-((2-(4-morpholinyl)ethyl)amino)-3-(trifluoromethyl)benzamide]
- IC50 (Tie-2 kinase enzyme): < 5 µM
- IC50 (AuroraA-TPX2 KD GST): < 10 µM
- IC50 (AuroraB FL His): < 10 µM

SMILES: CNc1nccc(-c2cccnc2Oc2ccc(NC(=O)c3ccc(N(C)CCCN(C)C)c(C(F)(F)F)c3)cc2C)n1 [Example 1190, 4-((3-(dimethylamino)propyl)(meth-yl)amino)-N-(3-methyl-4-((3-(2-(methylamino)-4-pyrimidinyl)-2-pyridinyl)oxy)phenyl)-3-(trifluoromethyl)benzamide]
- IC50 (Tie-2 kinase enzyme): < 5 µM
- IC50 (AuroraA-TPX2 KD GST): < 10 µM
- IC50 (AuroraB FL His): < 10 µM

SMILES: CNc1nccc(-c2cccnc2Oc2ccc(NC(=O)c3ccc(NC4CCN(C)CC4)c(C(F)(F)F)c3)cc2C)n1 [Example 1191, N-(3-methyl-4-((3-(2-(methylamino)-4-pyrimidinyl)-2-pyridinyl)oxy)phenyl)-4-((1-methyl-4-piperidinyl)amino)-3-(trifluoromethyl)benzamide]
- IC50 (Tie-2 kinase enzyme): < 5 µM
- IC50 (AuroraA-TPX2 KD GST): < 10 µM
- IC50 (AuroraB FL His): < 10 µM

SMILES: CNc1nccc(-c2cccnc2Oc2ccc(NC(=O)c3ccc(NCCCN4CCCC4)c(C(F)(F)F)c3)cc2C)n1 [Example 1192, N-(3-methyl-4-((3-(2-(methylamino)-4-pyrimidinyl)-2-pyridinyl)oxy)phenyl)-4-((3-(1-pyrrolidinyl)propyl)amino)-3-(trifluoromethyl)benzamide]
- IC50 (Tie-2 kinase enzyme): < 5 µM
- IC50 (AuroraA-TPX2 KD GST): < 10 µM
- IC50 (AuroraB FL His): < 10 µM

SMILES: CNc1nccc(-c2cccnc2Oc2ccc(NC(=O)c3ccc(N(C)C)c(C(F)(F)F)c3)cc2C)n1 [Example 1193, 4-(dimethylamino)-N-(3-methyl-4-((3-(2-(methylamino)-4-pyrimidinyl)-2-pyridinyl)oxy)phenyl)-3-(trifluoromethyl)benzamide]
- IC50 (Tie-2 kinase enzyme): < 5 µM
- IC50 (AuroraA-TPX2 KD GST): < 10 µM
- IC50 (AuroraB FL His): < 10 µM

SMILES: Cc1ccc(C(=O)Nc2ccc3[nH]ncc3c2)cc1Nc1ncccc1-c1ccncn1 [N-(1H-indazol-5-yl)-4-methyl-3-((3-(4-pyrimidinyl)-2-pyridinyl)amino)benzamide]
- IC50 (c-Met): < 25 µM

SMILES: Cc1ccc(C(=O)Nc2ccc3cn[nH]c3c2)cc1Nc1ncccc1-c1ccncn1 [N-(1H-indazol-6-yl)-4-methyl-3-((3-(4-pyrimidinyl)-2-pyridinyl)amino)benzamide]
- IC50 (c-Met): < 25 µM

SMILES: O=C(Nc1cccc(C(F)(F)F)c1)Nc1ccc(Oc2ncccc2-c2ccncn2)cc1F [N-(2-fluoro-4-((3-(4-pyrimidinyl)-2-pyridinyl)oxy)phenyl)-N′-(3-(trifluoromethyl)phenyl)urea]
- IC50 (c-Met): < 25 µM

SMILES: O=C(Nc1cccc(C(F)(F)F)c1)Nc1cc(Cl)c(Oc2ncccc2-c2ccncn2)c(Cl)c1 [N-(3,5-dichloro-4-((3-(4-pyrimidinyl)-2-pyridinyl)oxy)phenyl)-N′-(3-(trifluoromethyl)phenyl)urea]
- IC50 (c-Met): < 25 µM

SMILES: CCOc1cccc(NC(=O)c2ccc(C)c(Nc3ncccc3-c3ccncn3)c2)c1 [N-(3-(ethyloxy)phenyl)-4-methyl-3-((3-(4-pyrimidinyl)-2-pyridinyl)amino)benzamide]
- IC50 (c-Met): < 25 µM

SMILES: Cc1ccc(C(=O)Nc2cccc(Cl)c2)cc1Nc1ncccc1-c1ccncn1 [N-(3-chlorophenyl)-4-methyl-3-((3-(4-pyrimidinyl)-2-pyridinyl)amino)benzamide]
- IC50 (c-Met): < 25 µM

SMILES: CNc1nccc(-c2cccnc2Oc2ccc(NC(=O)Nc3ccccc3)cc2C)n1 [N-(3-methyl-4-((3-(2-(methylamino)-4-pyrimidinyl)-2-pyridinyl)oxy)phenyl)-N′-phenylurea]
- IC50 (c-Met): < 25 µM

SMILES: CNc1nccc(-c2cccnc2Oc2ccc(NC(=O)c3ccccc3)cc2C)n1 [N-(3-methyl-4-((3-(2-(methylamino)-4-pyrimidinyl)-2-pyridinyl)oxy)phenyl)benzamide]
- IC50 (c-Met): < 25 µM

SMILES: Cc1cc(NC(=O)c2cccc(C(F)(F)F)c2)ccc1Oc1ncccc1-c1ccncn1 [N-(3-methyl-4-((3-(4-pyrimidinyl)-2-pyridinyl)oxy)phenyl)-3-(trifluoromethyl)benzamide]
- IC50 (c-Met): < 25 µM

SMILES: Cc1cc(NC(=O)Nc2cccc(C(F)(F)F)c2)ccc1Oc1ncccc1-c1ccncn1 [N-(3-methyl-4-((3-(4-pyrimidinyl)-2-pyridinyl)oxy)phenyl)-N′-(3-(trifluoromethyl)phenyl)urea]
- IC50 (c-Met): < 25 µM

SMILES: Cc1cc(NS(=O)(=O)c2ccccc2)ccc1Oc1ncccc1-c1ccncn1 [N-(3-methyl-4-((3-(4-pyrimidinyl)-2-pyridinyl)oxy)phenyl)benzenesulfonamide]
- IC50 (c-Met): < 25 µM

SMILES: O=C(Nc1ccc(Oc2ncccc2-c2ccncn2)cc1)Nc1cccc(C(F)(F)F)c1 [N-(4-((3-(4-pyrimidinyl)-2-pyridinyl)oxy)phenyl)-N′-(3-(trifluoromethyl)phenyl)urea]
- IC50 (c-Met): < 25 µM

SMILES: O=C(Nc1cccc(C(F)(F)F)c1)Nc1ccc(Oc2ncccc2-c2ccncn2)c2ncccc12 [N-(8-((3-(4-pyrimidinyl)-2-pyridinyl)oxy)-5-quinolinyl)-N′-(3-(trifluoromethyl)phenyl)urea]
- IC50 (c-Met): < 25 µM

SMILES: CNc1nccc(-c2cccnc2Oc2ccc(NC(=O)NC3CCCCC3)cc2C)n1 [N-cyclohexyl-N′-(3-methyl-4-((3-(2-(methylamino)-4-pyrimidinyl)-2-pyridinyl)oxy)phenyl)urea]
- IC50 (c-Met): < 25 µM

SMILES: CNc1nccc(-c2cccnc2Oc2ccc(NC(=O)NC3CCCC3)cc2C)n1 [N-cyclopentyl-N′-(3-methyl-4-((3-(2-(methylamino)-4-pyrimidinyl)-2-pyridinyl)oxy)phenyl)urea]
- IC50 (c-Met): < 25 µM
